No constants are given. Whether binding was seen depends on the method and setting. In cells and extracts the contact can be indirect. Some binding calls cover weakened binding; strength is not graded here.
Assays:
[1] = target: mitochondrion-tethered E3 ubiquitin ligase MUL1 (human (endogenous in 786-O, A498 and patient-derived ccRCC tumor cells)) (UniProt Q969V5); assay: co-IP; immunoprecipitation from RIPA lysates of tumor cells freshly isolated from a patient tumor, treated with DMSO, ACSS2i or PT-2385; protein A-agarose; Western blot
[2] = target: mitochondrion-tethered E3 ubiquitin ligase MUL1 (human (endogenous in 786-O, A498 and patient-derived ccRCC tumor cells)) (UniProt Q969V5); assay: co-IP; MUL1 immunoprecipitated from RIPA lysates (500 μg protein, precleared, primary antibody overnight at 4°C, protein A-agarose, 5 washes with RIPA) of 786-O cells treated with DMSO or 5 μM ACSS2i for 24 hours; Western blot
[3] = target: mitochondrion-tethered E3 ubiquitin ligase MUL1 (human (endogenous in 786-O, A498 and patient-derived ccRCC tumor cells)) (UniProt Q969V5); assay: co-IP; immunoprecipitation from RIPA lysates of A498 cells treated with DMSO or ACSS2i; protein A-agarose; Western blot

Protein sequences, listed by entry. Tags and fused reporters are not part of them.
UniProt Q969V5: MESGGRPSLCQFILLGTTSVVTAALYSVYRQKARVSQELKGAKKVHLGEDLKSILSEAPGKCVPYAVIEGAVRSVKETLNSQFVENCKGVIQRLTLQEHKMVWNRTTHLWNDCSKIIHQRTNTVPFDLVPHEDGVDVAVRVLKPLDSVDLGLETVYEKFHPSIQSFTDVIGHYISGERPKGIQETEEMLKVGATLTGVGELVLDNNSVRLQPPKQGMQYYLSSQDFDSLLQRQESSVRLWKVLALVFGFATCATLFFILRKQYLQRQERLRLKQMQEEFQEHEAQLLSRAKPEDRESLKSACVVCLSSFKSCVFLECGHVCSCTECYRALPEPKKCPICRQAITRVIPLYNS
UniProt Q99814: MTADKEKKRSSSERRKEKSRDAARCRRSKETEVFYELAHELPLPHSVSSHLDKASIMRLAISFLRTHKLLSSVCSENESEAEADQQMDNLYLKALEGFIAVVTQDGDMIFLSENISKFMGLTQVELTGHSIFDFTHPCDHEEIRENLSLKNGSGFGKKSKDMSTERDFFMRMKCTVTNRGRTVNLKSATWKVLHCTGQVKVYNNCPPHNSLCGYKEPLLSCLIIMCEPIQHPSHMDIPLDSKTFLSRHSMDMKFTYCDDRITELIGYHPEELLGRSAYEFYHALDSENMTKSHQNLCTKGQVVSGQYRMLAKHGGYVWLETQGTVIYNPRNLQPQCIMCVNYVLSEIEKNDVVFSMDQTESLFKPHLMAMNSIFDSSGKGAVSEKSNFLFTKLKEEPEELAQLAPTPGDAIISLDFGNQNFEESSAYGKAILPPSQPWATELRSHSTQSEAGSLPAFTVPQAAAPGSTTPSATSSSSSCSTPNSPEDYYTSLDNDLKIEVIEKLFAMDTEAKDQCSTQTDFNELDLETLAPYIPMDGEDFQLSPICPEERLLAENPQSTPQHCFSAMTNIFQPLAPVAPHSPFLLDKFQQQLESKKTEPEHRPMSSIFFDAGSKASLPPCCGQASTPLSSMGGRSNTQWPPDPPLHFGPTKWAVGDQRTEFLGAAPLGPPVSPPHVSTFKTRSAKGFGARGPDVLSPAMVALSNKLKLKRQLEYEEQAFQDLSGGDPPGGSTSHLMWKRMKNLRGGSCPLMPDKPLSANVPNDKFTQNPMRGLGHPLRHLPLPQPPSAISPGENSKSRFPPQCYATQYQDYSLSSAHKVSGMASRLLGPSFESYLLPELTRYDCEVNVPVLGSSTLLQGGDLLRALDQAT

Measured: binding

hypoxia-inducible factor-2α (HIF-2α) (from UniProt Q99814 1-870)
binds: all assays above

From article PMC11178540
